PubChem BioAssay AID686938 – Drosophila RNAi Screening Center, 2013

Purpose: 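Looking for CRAC channel components and the factors controlling them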 (primary screen)
Cells: Drosophila S2R+ cells
Reagent: long dsRNA against Drosophila genes, about 0.25 µg dsRNA per well, roughly 10,000 cells
Duration: 5 days of knock-down before the calcium assay
Conditions: thapsigargin (SERCA pump blocker) to empty calcium stores; entry signal taken 4 min after adding it
Detection: 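Duplicate raw fluo-4 intensities per well from a plate reader, at rest and four minutes after thapsigargin emptied calcium stores; entry-to-rest ratio filled for only some wells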
Reading the numbers: calcium entry signal: higher = stronger calcium signal after store depletion; resting calcium signal: higher = higher resting calcium signal
Active means: 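Hit if the duplicate-averaged plate z-score for entry over resting signal is under −3; wells with weak total dye signal (Fmax z < −2) or more than 5 off-targets removed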
Calls: active = strongly reduced calcium entry; inactive = no strong reduction
In all, the deposit lists about 23,000 reagents; shown is a random part of those that have a named target and a result. Of all reagents, 75 (0.33%) are marked active. 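Raw plate signals without normalisation; calls rest on plate z-scores that were not deposited; ratio present for only 364 wells.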 Unmarked entries are inactive. Names joined by + are all predicted targets of the reagent. Not given: the dose of the treatment.

no.	gene knocked down	DRSC id	calcium entry signal, replicate 1 (fluorescence units)	calcium entry signal, replicate 2 (fluorescence units)	resting calcium signal, replicate 1 (fluorescence units)	resting calcium signal, replicate 2 (fluorescence units)
1	Ype (Yippee)	DRSC20301	3.78e7	4.22e7	1.75e7	1.86e7
2	CG2540	DRSC19856	3.95e7	3.94e7	1.77e7	1.88e7
3	eIF5B (eukaryotic translation initiation factor 5B)	DRSC08429	2.14e7	2.04e7	1.18e7	1.08e7
4	eIF5B (eukaryotic translation initiation factor 5B)	DRSC08710	1.92e7	1.75e7	1.02e7	9.78e6
5	CG7953	DRSC01902	4.01e7		1.87e7	
6	CG9948	DRSC11104	4.77e7	3.16e7	3.05e7	1.34e7
7	Ate1 (Arginyltransferase 1)	DRSC05925	4.20e7	3.82e7	1.86e7	1.83e7
8	Fibp	DRSC11031	2.81e7	3.43e7	1.41e7	2.35e7
9	rt (rotated abdomen)	DRSC11391	2.92e7	4.02e7	1.54e7	1.74e7
10	CG6276	DRSC16007	3.66e7	4.91e7	1.54e7	2.08e7
11	Gbp3 (Growth-blocking peptide 3)	DRSC15206	6.06e7	7.16e7	2.73e7	2.90e7
12	ZC3H3	DRSC10696	1.73e7 (active)	2.41e7	1.12e7	1.49e7
13	r (rudimentary)	DRSC19813	2.25e7	3.51e7	1.19e7	1.57e7
14	r (rudimentary)	DRSC19814	2.21e7	2.70e7	1.22e7	1.39e7
15	nac (neuronally altered carbohydrate)	DRSC16520	4.64e7	3.37e7	2.08e7	1.74e7
16	mTor (mechanistic Target of rapamycin)	DRSC02811	3.65e7		1.88e7	
17	CG10654	DRSC09767	2.28e7	2.60e7	1.13e7	1.19e7
18	Rrp4	DRSC04434	2.42e7		1.46e7	
19	COX5BL (Cytochrome c oxidase subunit 5B-like)	DRSC02123	2.91e7	2.55e7	1.49e7	1.33e7
20	CG15406	DRSC00420	3.04e7	2.68e7	1.46e7	1.30e7
21	CG18231	DRSC10307	3.44e7	5.96e7	1.82e7	2.45e7
22	Trf4-1 (Topoisomerase related function 4-1)	DRSC17775	3.14e7	3.36e7	1.58e7	1.76e7
23	CG13284	DRSC02256	3.67e7	2.32e7	1.64e7	1.13e7
24	mrt (martik)	DRSC15484	3.81e7	6.30e7	2.02e7	2.53e7
25	gudu	DRSC02820	3.56e7	4.38e7	1.83e7	2.12e7
26	CG5070	DRSC19932	3.61e7	3.08e7	1.97e7	1.54e7
27	cav (caravaggio)	DRSC15995	3.42e7	3.23e7	1.80e7	1.60e7
28	CG42747	DRSC10209	3.19e7	4.29e7	1.46e7	1.57e7
29	CG42747	DRSC10210	3.31e7	5.82e7	1.64e7	2.38e7
30	Cnx99A + Cnx14D	DRSC16610	3.22e7	4.84e7	1.70e7	2.21e7
31	lncRNA:CR30009 (long non-coding RNA:CR30009)	DRSC22952	2.68e7	3.01e7	1.41e7	1.31e7
32	CG13983	DRSC02315	3.83e7	4.18e7	1.91e7	1.94e7
33	CG17944	DRSC12572	3.90e7	2.79e7	1.80e7	1.36e7
34	RpS24 (Ribosomal protein S24)	DRSC04414	1.96e7	2.39e7	1.25e7	1.44e7
35	CG4546	DRSC15593	4.42e7	5.46e7	1.90e7	6.87e7
36	CG3587	DRSC18541	2.87e7	8.09e7	1.44e7	3.30e7
37	CG3587	DRSC21966	3.31e7	4.89e7	1.62e7	2.50e7
38	crb (crumbs)	DRSC16927	2.66e7	2.73e7	1.35e7	1.27e7
39	cta (concertina)	DRSC03769	4.29e7		2.12e7	
40	Vha16-5 (Vacuolar H[+] ATPase 16kD subunit 5)	DRSC02986	2.22e7	2.94e7	1.07e7	1.28e7
41	CG30350	DRSC07690	3.52e7	2.78e7	1.48e7	1.33e7
42	CG1603	DRSC06602	4.00e7		2.10e7	
43	galla-1	DRSC05987	2.87e7	3.11e7	1.43e7	1.58e7
44	CG9427	DRSC16490	4.21e7	4.80e7	1.81e7	2.08e7
45	CG30222	DRSC04125	3.53e7	4.35e7	1.58e7	1.71e7
46	CG30222	DRSC04262	5.90e7	5.19e7	2.91e7	2.20e7
47	ZnT35C (Zinc transporter 35C)	DRSC01959	4.05e7	2.61e7	1.84e7	1.28e7
48	CG43218	DRSC11475	3.76e7	4.23e7	1.93e7	2.04e7
49	Gnpat (Glyceronephosphate O-acyltransferase)	DRSC16960	2.99e7	4.45e7	1.54e7	1.95e7
50	CG2750	DRSC19867	4.96e7	4.22e7	2.36e7	1.96e7
51	Fancl	DRSC14550	2.35e7	1.81e7	1.17e7	9.01e6
52	Rsod (Related to Sod)	DRSC15424	2.46e7	3.48e7	1.40e7	1.72e7
53	TwdlQ (TweedleQ)	DRSC14745	2.35e7	3.71e7	1.34e7	1.68e7
54	TwdlQ (TweedleQ)	DRSC23107	4.10e7	4.46e7	1.89e7	1.84e7
55	CG12560	DRSC02174	2.72e7	4.38e7	1.23e7	1.67e7
56	Mabi (Mabiki)	DRSC02489	4.67e7	2.16e7	1.97e7	1.12e7
57	CG9691	DRSC18441	3.87e7	6.35e7	1.93e7	2.84e7
58	CG32052	DRSC10966	3.12e7	4.70e7	1.64e7	2.08e7
59	TfIIFalpha (Transcription factor IIFalpha)	DRSC12608	1.96e7	2.72e7	1.09e7	1.42e7
60	Gr10a (Gustatory receptor 10a)	DRSC18897	2.09e7	3.32e7	9.79e6	1.45e7
61	Gr10a (Gustatory receptor 10a)	DRSC22792	3.55e7	3.32e7	1.71e7	1.68e7
62	RpL17 (Ribosomal protein L17)	DRSC18293	1.15e7	1.18e7	8.80e6	8.22e6
63	CG7724	DRSC10905	2.68e7	3.68e7	1.22e7	2.26e7
64	CG42750	DRSC02458	3.14e7	5.39e7	1.86e7	2.33e7
65	CG42750	DRSC03019	5.77e7	3.32e7	2.48e7	1.59e7
66	CG42750	DRSC03024	5.13e7	3.40e7	2.16e7	1.50e7
67	CG42750	DRSC21414	3.63e7	3.58e7	2.16e7	1.67e7
68	CG42750	DRSC23218	3.71e7	5.19e7	1.69e7	2.21e7
69	CG31088	DRSC13123	2.86e7	3.65e7	1.29e7	1.66e7
70	Eh (Eclosion hormone)	DRSC16660	3.15e7	4.75e7	1.55e7	7.13e7
71	Tgi (Tondu-domain-containing Growth Inhibitor)	DRSC09793	2.93e7	4.50e7	1.66e7	2.05e7
72	Tgi (Tondu-domain-containing Growth Inhibitor)	DRSC09794	3.06e7	5.20e7	1.64e7	2.47e7
73	CG33160	DRSC08197	2.64e7	3.33e7	1.34e7	1.58e7
74	Pal1 + Pdrg1	DRSC06587	2.29e7	2.32e7	1.09e7	1.05e7
75	CG32454	DRSC11652	2.97e7	4.12e7	1.51e7	2.98e7
